In all, about 320,000 compounds went through this assay and about 22,000 (6.9%) were called active. This list was built around the results that the source calls inconclusive (neither active nor inactive); the mix of calls is not that of the screen. Calls follow the shape of the dose curve; as a rule, active = well fitted inhibition curve with a large enough effect; inconclusive = small, poorly fitted or top-dose-only effect, or another doubt; inactive = no such curve, though single readings can be large or run the other way. A potency beside an inconclusive call is a rough fit, not a confirmed value.
Experiment: Primary qHTS for delayed death inhibitors of the malarial parasite plastid, 96 hour incubation
Conditions: P. falciparum luciferase reporter growth; series mostly up to 28.7 µM
Summary of the method: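 Infected RBCs, 2% Hct / 0.05% parasitemia final; luciferase-reporter P. falciparum; cpd 96 h, 37 C, 5% CO2; luciferase detection reagent; luminescence.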
With COc1ccc(CCN(C)CC(O)COc2c(C)ccc(C)c2C)cc1OC (stereo unspecified) the Potency was inconclusive: 0.0828 µM [inhibitor, full curve, poor fit]. For O=P(O)(O)c1cc(-c2ccccc2)oc1-c1ccccc1, the Potency was inconclusive: 18.5 µM [inhibitor, single point]. With COc1ccc(C[C@H]2CN3C(=NC[C@@H]3Cc3ccccc3)N2CCNC(=O)c2ccc(C)c(Br)c2)cc1 the Potency was active: 5.22 µM. With N#CCC(=O)N/N=C/c1ccc(N2N=C(c3ccccc3)CC2c2ccccc2)cc1 (stereo unspecified) the Potency was inconclusive: 0.0029 µM [inhibitor, full curve, poor fit]. For O=C(O)c1ccc(NS(=O)(=O)c2ccc3c(c2)C2C=CCC2C(c2ccccc2F)N3)cc1 (stereo unspecified), the Potency was inconclusive: 11.7 µM [inhibitor, single point]. With CCCCN1C(=O)/C(=C/C=C2/C=Cc3ccccc3N2CC)SC1=S the Potency was active: 0.117 µM. For O=C(COC(=O)c1cccc(O)c1)NC(=O)Cc1ccccc1, the Potency was inconclusive: 18.5 µM [inhibitor, single point]. For COCCNC(=O)C(c1ccc(C)cc1)N(Cc1ccco1)C(=O)CCC(=O)Nc1ccccn1 (stereo unspecified), the Potency was “inactive”. With Cc1ccc(Cl)cc1NC(=O)CCCN1C(=O)c2cccnc2C1=O the Potency was “inactive”. In the case of Cc1ccc2sc(N(CCCN(C)C)C(=O)c3ccc(S(=O)(=O)N4CCOCC4)cc3)nc2c1C, the Potency was inconclusive: 9.28 µM [inhibitor, single point]. In the case of NC(=O)[C@@H]1CCNc2c(I)cc([N+](=O)[O-])cc2C(=O)N[C@@H](CO)C(=O)N[C@@H](Cc2ccc(O)cc2)C(=O)N1, the Potency was “inactive”. With Cc1ccc(NC(=O)Cc2ccccc2F)cc1S(=O)(=O)N1CCCCCC1 the Potency was inconclusive: 18.5 µM [inhibitor, partial curve, poor fit]. In the case of O=C(c1ccc2c(c1)CCN2S(=O)(=O)c1ccccc1)N1CCN(c2ccccc2F)CC1, the Potency was “inactive”. With Cc1ccc(S(=O)(=O)NCCC(=O)OCC(=O)N(Cc2ccccc2)C(C)(C)C)cc1C the Potency was “inactive”. With O=C(CN(Cc1ccccc1)S(=O)(=O)c1ccccc1)N/N=C/c1ccccc1C(=O)O the Potency was inconclusive: 13.1 µM [inhibitor, partial curve, poor fit]. In the case of CC(C)Cn1cc(C(=O)NC2CCN(Cc3ccccc3)CC2)c2c3ccccc3n(C)c2c1=O, the Potency was inconclusive: 0.0586 µM [inhibitor, full curve, poor fit]. In the case of COc1ccccc1NS(=O)(=O)c1cc(C(=O)N2CCN(C/C=C/c3ccccc3)CC2)ccc1C, the Potency was “inactive”. For O=C(O)c1cccc(-n2c(O)c(C=C3N=c4ccccc4=N3)sc2=S)c1, the Potency was inconclusive: 4.65 µM [inhibitor, single point]. With Cc1ccccc1CC(=O)N1CCN(S(=O)(=O)c2cccs2)CC1 the Potency was inconclusive: 18.5 µM [inhibitor, single point]. For CCCN(CCC)C(=O)Cn1c(=O)n(CCCCC(=O)NCc2ccco2)c(=O)c2ccccc21, the Potency was active: 11.7 µM. With CC(C)CN(C(=O)CSc1nncs1)c1c(N)n(CC(C)C)c(=O)[nH]c1=O the Potency was inconclusive: 14.7 µM [inhibitor, partial curve, poor fit]. In the case of Cn1cc(C(=O)O)c(-c2ccc3c(c2)OCCCO3)n1, the Potency was “inactive”. For C[C@H]1[C@H](C)CC[C@]2(C(=O)O)CC[C@]3(C)C(=CC[C@@H]4[C@@]5(C)CC[C@H](O)C(C)(C)[C@@H]5CC[C@]43C)[C@H]12, the Potency was “inactive”. In the case of COc1ccc(-c2nnc(NC(=O)c3ccc(S(=O)(=O)N4CCCc5ccccc54)cc3)o2)cc1, the Potency was inconclusive: 7.38 µM [inhibitor, partial curve, poor fit]. In the case of CC(Oc1ccccc1F)C(=O)NNC(=O)c1cccc(S(=O)(=O)N2CCN(C)CC2)c1 (stereo unspecified), the Potency was inconclusive: 18.5 µM [inhibitor, single point]. In the case of CCOc1ccccc1CN1CCN(S(C)(=O)=O)CC1, the Potency was inconclusive: 18.5 µM [inhibitor, partial curve, poor fit]. For CCOC(=O)c1nc(Nc2ccc(N3CCOCC3)cc2)c2ccccc2n1, the Potency was inconclusive: 4.65 µM [inhibitor, partial curve, poor fit]. For COc1cccc(N(C(=O)CNC(=O)c2ccco2)C(C(=O)NC2CCCCC2)c2cccnc2)c1 (stereo unspecified), the Potency was inconclusive: 2.08 µM [inhibitor, partial curve, poor fit]. In the case of CC(C)Cc1[nH]c(=O)c(C#N)c2c1CCCC2, the Potency was inconclusive: 4.15 µM [inhibitor, single point]. With CCNC(=O)NC(=O)C(C)Oc1ccc(Br)cc1Br (stereo unspecified) the Potency was inconclusive: 0.0828 µM [inhibitor, full curve, poor fit]. For COc1ccc(N/C(N)=N/c2nc(C)cc(=O)[nH]2)cc1, the Potency was inconclusive: 18.5 µM [inhibitor, single point]. In the case of CC(C)S(=O)(=O)c1ccc(C(=O)Nc2ccc(F)cc2F)cn1, the Potency was “inactive”. With COc1ccc(N2CCN(C(=O)c3cc(S(=O)(=O)N4CCCCCC4)ccc3OC)CC2)cc1 the Potency was inconclusive: 1.65 µM [inhibitor, partial curve, poor fit]. With Cc1ccc(C(=O)C(C)OC(=O)Cn2[nH]c(=O)c3ccccc3c2=O)cc1C (stereo unspecified) the Potency was “inactive”. In the case of O=C(CCC(=O)N(CC(=O)NC1CCCCC1)c1ccc(F)cc1)Nc1ccccn1, the Potency was “inactive”. In the case of NC(=O)CSc1nnc(CNc2cccc(Cl)c2)n1CCc1ccccc1, the Potency was inconclusive: 18.5 µM [inhibitor, single point]. In the case of CS(=O)(=O)Nc1ccc(C2=NN(S(C)(=O)=O)C(c3ccc4c(c3)OCO4)C2)cc1 (stereo unspecified), the Potency was active: 2.94 µM. With CC(=O)c1cccc(NC(=O)C2CCCN(S(=O)(=O)c3cccc4cccnc34)C2)c1 (stereo unspecified) the Potency was inconclusive: 9.28 µM [inhibitor, partial curve]. For Cc1cc(C)cc(NC(=S)NCC2CCN(C(C)c3ccccc3)C2)c1 (stereo unspecified), the Potency was active: 5.22 µM. For COc1ccc(C(c2sc3nc(C)nn3c2O)N2CCC3(CC2)OCCO3)cc1 (stereo unspecified), the Potency was inconclusive: 5.22 µM [inhibitor, partial curve]. In the case of CSc1ncccc1C(=O)Nc1cccc(S(=O)(=O)N2CCCCC2)c1, the Potency was active: 10.4 µM. With CC(=O)c1ccc(-c2ccc(Cn3c(C)nc4cc(N)c(C)nc43)cc2)cc1 the Potency was inconclusive: 18.5 µM [inhibitor, single point]. For CCN(Cc1ccccc1)C(=O)C1CCN(S(=O)(=O)c2ccc3c(c2)OCCO3)CC1, the Potency was active: 13.1 µM. With COC(=O)c1ccccc1NC(=O)Cn1c(=O)n(Cc2ccccc2)c(=O)c2c(C)c(C)sc21 the Potency was inconclusive: 18.5 µM [inhibitor, single point]. In the case of Cc1cc(C(=O)CSc2nnc(-c3ccccc3)n2-c2ccccc2)c(C)n1-c1ncn[nH]1, the Potency was inconclusive: 18.5 µM [inhibitor, single point]. In the case of CCc1nnc(NC(=O)CSc2nc3cccnc3n2C2CCCCC2)s1, the Potency was inconclusive: 13.1 µM [inhibitor, single point]. With CN(C(=O)c1ccc2c(=O)n3c(nc2c1)CCCCC3)c1ccccc1Cl the Potency was “inactive”. With COc1ccc(OCC(=O)Nc2ccc(C)c(S(=O)(=O)N(C)C)c2)cc1 the Potency was “inactive”. In the case of CCOC(=O)C1=C(CP(=O)(c2ccccc2)c2ccccc2)NC(=O)NC1c1ccc(OC)cc1 (stereo unspecified), the Potency was inconclusive: 11.7 µM [inhibitor, single point]. With CCOC(=O)c1c(NC(=S)Nc2ccc(OC)cc2)sc2c1CCCCC2 the Potency was inconclusive: 2.08 µM [inhibitor, full curve]. In the case of Cc1ccccc1CC1SC(N)=NC1=O (stereo unspecified), the Potency was “inactive”. In the case of COc1cccc(NC(=O)N2CCN(C(=O)C(Cc3ccc(OC)c(OC)c3)NC(C)=O)CC2)c1 (stereo unspecified), the Potency was “inactive”. In the case of Cc1cc(-c2ccccc2)nc2cc(C(=O)OC(C)C)nn12, the Potency was inconclusive: 18.5 µM [inhibitor, single point]. With COc1ccc(S(=O)(=O)Nc2cc3c4c(oc3c3ccccc23)CCCC4=O)cc1 the Potency was active: 9.28 µM. In the case of COc1cccc(Cn2c(=O)oc3ccccc32)c1, the Potency was “inactive”. In the case of O=C(COC(=O)Cn1cnc2ccccc21)Nc1cc2c(cc1Cl)C(=O)c1ccccc1C2=O, the Potency was “inactive”. With CN1C(=O)NC(c2ccc(O)cc2)C2=C1CN(c1ccc(O)cc1)C2=O (stereo unspecified) the Potency was inconclusive: 2.33 µM [inhibitor, partial curve, poor fit]. In the case of CCCCNCc1cc(Cl)c(OCCC)c(OCC)c1, the Potency was active: 8.28 µM. In the case of CN(c1cccc(NC(=O)Nc2cccc(Cl)c2)c1)S(C)(=O)=O, the Potency was “inactive”. With CCC(c1nnnn1Cc1ccco1)N(CCN1CCOCC1)Cc1cc2cc(C)ccc2[nH]c1=O (stereo unspecified) the Potency was inconclusive: 11.7 µM [inhibitor, partial curve, poor fit]. For CCN1CCN(c2oc(COc3ccc(-c4ccccc4)cc3)nc2C#N)CC1, the Potency was inconclusive: 0.208 µM [inhibitor, full curve, poor fit]. For COc1cc(/C=C2/C(=N)N3C(SC)=NSC3=NC2=O)ccc1OC(=O)c1ccco1, the Potency was inconclusive: 0.104 µM [inhibitor, full curve, poor fit]. In the case of COCCN(C(=O)CC1CCCCC1)c1c(N)n(CC(C)C)c(=O)[nH]c1=O, the Potency was “inactive”. In the case of Cn1c(=O)c2c(nc(NCCc3ccccc3)n2Cc2ccc(F)cc2)n(C)c1=O, the Potency was inconclusive: 10.4 µM [inhibitor, single point]. With COCCOC(=O)c1c(C)oc2ccc(NS(=O)(=O)c3ccc(F)cc3)cc12 the Potency was inconclusive: 14.7 µM [inhibitor, single point]. With Cc1ccc(OCCCN2CCOCC2)c([N+](=O)[O-])c1 the Potency was “inactive”.
Potency is read from the fitted curve at half-maximal effect.
